# Results from PMC12188478, “Leveraging the Aminothiol-Specific Phosphorogenic Response of Iridium(III) Thioester Complexes for the Development of Intracellular Sensors and Cancer Phototherapeutics” (JACS Au, 2025).
# Peptide text beside a SMILES is read from it. * marks the point of attachment. X1 = Cc1cc[n+]2c(c1)-c1cc(C(=O)*)cc[n+]1[Ir-3]213([c]2c(sc4ccccc24)-c2c4ccccc4cc[n+]21)[c]1c(sc2ccccc12)-c1c2ccccc2cc[n+]13; Isonicotinoyl(2-(4-Me-2-Py)) = Cc1ccnc(-c2cc(C(=O)*)ccn2)c1
# Test system: MDA-MB-231 cells
# Experiment: LSCM co-staining (intracellular localization)
# Format: cell-based
# Conditions: 10 μM, 16 h; for Pearson’s correlation coefficient (PCC) with LysoTracker Deep Red: LysoTracker Deep Red 100 nM, 1 h; for PCC with MitoTracker Green: MitoTracker Green 100 nM, 20 min
compound,measurement,value
Cc1ccnc(-c2cc(C(=O)N[C@@H](CS)C(=O)N[C@@H](C)C(=O)N[C@@H](CO)C(=O)N3CCC[C@H]3C(=O)N[C@@H](CO)C(=O)NCC(=O)N[C@@H](C)C(=O)N[C@@H](CC(C)C)C(=O)N[C@@H](CCCNC(=N)N)C(=O)N[C@@H](CO)C(=O)N[C@@H](CS)C(=O)O)ccn2)c1 [Conjugate 3a-CASP] ({Isonicotinoyl(2-(4-Me-2-Py))}-CASPSGALRSC-OH; C-terminus assumed),Pearson’s correlation coefficient (PCC) with LysoTracker Deep Red,0.72
same,PCC with MitoTracker Green,0.46
CC[C@H](C)[C@H](NC(=O)[C@H](Cc1ccc(O)cc1)NC(=O)[C@H](CCSC)NC(=O)[C@H](CS)NC(=O)c1cc[n+]2c(c1)-c1cc(C)cc[n+]1[Ir-3]213([c]2c(sc4ccccc24)-c2c4ccccc4cc[n+]21)[c]1c(sc2ccccc12)-c1c2ccccc2cc[n+]13)C(=O)N[C@@H](CCC(=O)O)C(=O)N[C@@H](C)C(=O)N[C@@H](CC(C)C)C(=O)N[C@@H](CC(=O)O)C(=O)N[C@@H](CCCCN)C(=O)N[C@@H](Cc1ccc(O)cc1)C(=O)N[C@@H](C)C(=O)N[C@@H](CS)C(=O)O [Conjugate 3a-CMYI] (X1-CMYIEALDKYAC-OH; C-terminus assumed),Pearson’s correlation coefficient (PCC) with LysoTracker Deep Red,0.81
same,PCC with MitoTracker Green,0.28
Cc1cc[n+]2c(c1)-c1cc(C(=O)N[C@@H](CS)C(=O)N[C@@H](Cc3ccc(O)cc3)C(=O)N[C@@H](CC(N)=O)C(=O)N[C@H](C(=O)N[C@@H](CC(N)=O)C(=O)N[C@@H](Cc3c[nH]cn3)C(=O)N[C@H](C(=O)N3CCC[C@H]3C(=O)N[C@@H](CC(C)C)C(=O)N[C@@H](CO)C(=O)N3CCC[C@H]3C(=O)N[C@@H](CCCCN)C(=O)N[C@@H](Cc3ccc(O)cc3)C(=O)O)C(C)C)[C@@H](C)O)cc[n+]1[Ir-3]213([c]2c(sc4ccccc24)-c2c4ccccc4cc[n+]21)[c]1c(sc2ccccc12)-c1c2ccccc2cc[n+]13 [Conjugate 3a-CYNT] (X1-CYNTNHVPLSPKY-OH; C-terminus assumed),Pearson’s correlation coefficient (PCC) with LysoTracker Deep Red,0.69
same,PCC with MitoTracker Green,0.36
